In patent publication US20230070752A1:
No constants are given. Whether binding was seen depends on the method and setting. Some binding calls cover weakened binding; strength is not graded here.

Chains of the proteins cited; added tags and fusions are not shown. Lines headed by an entry give the natural chain unless they say otherwise; changes in a name come on top.
UniProt K9M1U5: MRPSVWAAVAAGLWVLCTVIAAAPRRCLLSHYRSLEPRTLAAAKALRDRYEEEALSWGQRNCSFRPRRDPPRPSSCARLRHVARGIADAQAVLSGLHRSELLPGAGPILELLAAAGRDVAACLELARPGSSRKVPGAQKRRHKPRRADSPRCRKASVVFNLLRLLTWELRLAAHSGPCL

molecular target: T1, IFNλR1 (UniProt Q8IU57); test: BLI (BLItz)
T1 sequence (looked up): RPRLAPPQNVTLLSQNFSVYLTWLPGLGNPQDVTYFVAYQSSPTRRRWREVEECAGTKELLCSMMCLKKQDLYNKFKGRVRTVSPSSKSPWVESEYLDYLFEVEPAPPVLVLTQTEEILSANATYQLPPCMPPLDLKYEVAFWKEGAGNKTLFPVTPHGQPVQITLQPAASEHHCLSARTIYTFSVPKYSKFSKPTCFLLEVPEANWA

binding	Substance
binds	M1 (L28N) IFNλ4 variant (from UniProt K9M1U5 22-179) (ligand)
binds	M3 (P73N) IFNλ4 variant (from UniProt K9M1U5 22-179) (ligand)
binds	eIFNλ4 (wild-type IFNλ4 produced in E. coli, R&D Systems 9165-IL) (from UniProt K9M1U5 23-179) (ligand)
